Test results from doi:10.1101/2021.02.10.429309.
No constants are given. Whether binding was seen depends on the method and setting. In cells and extracts the contact can be indirect. Here binding means that the protein was enriched with, or labelled near, the bait; the list need not be complete.

biological target: 3×HA-tagged KRAS (KRAS-4B) (UniProt P01116); test: affinity purification with mass spectrometry

binding | Substance
binds | Ras-related protein RAB7A (from UniProt P51149 1-207)
binds | Ras-related protein RAB6A (from UniProt P20340 1-208)
binds | Ras-related protein RAB11A (from UniProt P62491 1-216)
